Measured values taken from the supplement of paper PMC4683952.
This is one part of the list. Cut-off read from the data, not from the text of the source: active = 2 or more and inactive = the rest. Single values are uncertain here, since repeats match poorly.

What follows are compounds tested on Lgr5 (MarsCy1-Lgr5-EGFP, U2OS) (assay: cell-surface Lgr5 expression (SCi1 fluorescence, background-subtracted) relative to WT DMSO (fold of DMSO control); higher = more Lgr5 at the plasma membrane). Conditions: U2OS MarsCy1-Lgr5-EGFP stable; treatment time: overnight; library: ActiProbe-5K (TimTec); 25 µM.

| Structure (SMILES) | cell-surface Lgr5 expression |
| --- | --- |
| CCOC(=O)c1[nH]c(Cc2[nH]c(C(=O)OCC)c(C)c2CC)c(CC)c1C | inactive: 0.875 |
| O=C([O-])/C=C\c1c[nH]c2ccccc12.[Na+] | inactive: 1.24 |
| O=C(O)c1cc(=O)c2cc(Br)ccc2o1 | inactive: 1.28 |
| Cc1cc(CO)c(C(=O)O)c(=O)[nH]1 | inactive: 1.33 |
| CCNc1nc(NC(C)(C)C)nc(N2CCCC2)n1 | inactive: 1.87 |
| CN(C)S(=O)(=O)NCC1CCCO1 (stereo unspecified) | inactive: 1.09 |
| CCN(CC)S(=O)(=O)C1CCS(=O)(=O)C1 (stereo unspecified) | inactive: 1.44 |
| Cn1cccc1/C=N\n1cnnc1 | inactive: 1.92 |
| OCC(O)CN1CCc2ccccc21 (stereo unspecified) | inactive: 1.25 |
| CN(C)c1ccc(/C=C\C=N\NC2=NS(=O)(=O)c3ccccc32)cc1 | inactive: 0.777 |
| Cc1cc(C)n(CC(=O)NN)c(=O)c1C#N | inactive: 1.27 |
| CCCCC(CC)C(=O)NC(C)COC (stereo unspecified) | inactive: 0.992 |
| OC1(C(F)(F)F)Oc2ccccc2-c2oncc21 (stereo unspecified) | inactive: 0.913 |
| CC1(C)CC(N2CCC(=O)NC2=S)CC(C)(C)N1 | inactive: 1.03 |
| COc1cc2c(cc1NS(=O)(=O)c1ccc(OC)c3ccccc13)oc1ccccc12 | inactive: 1.09 |
| O=[N+]([O-])c1cc2cccnc2c2ncccc12 | inactive: 0.363 |

| Structure (SMILES) | cell-surface Lgr5 expression |
| --- | --- |
| CCn1nccc1C(=O)NC(Cn1cccn1)C(C)(C)C (stereo unspecified) | inactive: 1.28 |
| O=C(N/N=C\c1ccco1)N/N=C/c1ccco1 | inactive: 1.13 |
| Fc1cccc(C2CCCN2)c1 (stereo unspecified) | inactive: 1.28 |
| C=CCN(CC=C)S(=O)(=O)c1ccc(OC)c2ncccc12 | inactive: 0.892 |
| Cc1ccc(C(C2C(=O)CC(C)(C)CC2=O)C2C(=O)CC(C)(C)CC2=O)s1 | inactive: 1.46 |
| COc1cc([N+](=O)[O-])c(OC)cc1Cl | inactive: 1.4 |
| Fc1ccc(/C=N/n2c(S)nnc2-c2ccncc2)cc1 | inactive: 0.76 |
| Fc1ccc(N2CCN(Cn3cnc4ccccc43)CC2)cc1 | inactive: 1.15 |
| NCC(c1cccs1)N1CCOCC1 (stereo unspecified) | inactive: 1.28 |
| C[N+](CCC#N)(CCC#N)Cc1ccccc1.[Cl-] | inactive: 1.39 |
| Cc1cc(-c2nnc3sc(Cc4cccs4)nn23)[nH]n1 | inactive: 1.28 |
| O=S(=O)(Nc1ccc(Br)cc1)N1CCCC1 | inactive: 1.06 |
| Sc1nc2cc(Cl)ccc2s1 | inactive: 1.08 |
| Nc1ccc2c(c1)COc1ccccc1O2 | inactive: 1.1 |
| Cc1cc(=O)n2c3c(cc(S(=O)(=O)NC4CC4)cc13)CC2 | inactive: 1.18 |

Pulled by structure from the list above, two records:

| Structure (SMILES) | cell-surface Lgr5 expression |
| --- | --- |
| CCN(CC)S(=O)(=O)C1CCS(=O)(=O)C1 (stereo unspecified) | inactive: 1.44 |
| Fc1cccc(C2CCCN2)c1 (stereo unspecified) | inactive: 1.28 |
